Measured values published in publication PMC5597638.

Biological target: GST-tagged Abl-SH3 domain (mouse)
Assay: pull-down; GST-Abl-SH3 as bait; detergent-soluble lysates of IFN-γ-stimulated U937 or HL-60 cells, without or with cross-linking of FcγRI (mIgG2a, then F(ab′)2 anti-mouse IgG, 10 min, 37 °C); bound proteins analysed by immunoblotting; only the target purified

binding: binds
B3: HA-3BP2 whose Pro418 was substituted to Arg (protein, UniProt P78314 1-561)
chain: MAAEEMHWPVPMKAIGAQNLLTMPGGVAKAGYLHKKGGTQLQLLKWPLRFVIIHKRCVYYFKSSTSASPQGAFSLSGYNRVMRAAEETTSNNVFPFKIIHISKKHRTWFFSASSEEERKSWMALLRREIGHFHEKKDLPLDTSDSSSDTDSFYGAVERPVDISLSPYPTDNEDYEHDDEDDSYLEPDSPEPGRLEDALMHPPAYPPPPVPTPRKPAFSDMPRAHSFTSKGPGPLLPPPPPKHGLPDVGLAAEDSKRDPLCPRRAEPCPRVPATPRRMSDPPLSTMPTAPGLRKPPCFRESASPSPEPWTPGHGACSTSSAAIMATATSRNCDKLKSFHLSPRGPPTSEPPPVPANKPKFLKIAEEDPPREAAMPGLFVPPVAPRPPALKLPVPEAMARPAVLPRPEKPQLPHLQRSPRDGQSFRSFSFEKPRQPSQADTGGDDSDEDYEKVPLPNSVFVNTTESCEVERLFKATSPRGEPQDGLYCIRNSSTKSGKVLVVWDETSNKVRNYRIFEKDSKFYLEGEVLFVSVGSMVEHYHTHVLPSHQSLLLRHPYGYTGPR

binding: binds
B4: HA-3BP2 whose PH domain is deleted (domain or fragment, UniProt P78314 134-561)
chain: EKKDLPLDTSDSSSDTDSFYGAVERPVDISLSPYPTDNEDYEHDDEDDSYLEPDSPEPGRLEDALMHPPAYPPPPVPTPRKPAFSDMPRAHSFTSKGPGPLLPPPPPKHGLPDVGLAAEDSKRDPLCPRRAEPCPRVPATPRRMSDPPLSTMPTAPGLRKPPCFRESASPSPEPWTPGHGACSTSSAAIMATATSRNCDKLKSFHLSPRGPPTSEPPPVPANKPKFLKIAEEDPPREAAMPGLFVPPVAPRPPALKLPVPEAMARPAVLPRPEKPQLPHLQRSPPDGQSFRSFSFEKPRQPSQADTGGDDSDEDYEKVPLPNSVFVNTTESCEVERLFKATSPRGEPQDGLYCIRNSSTKSGKVLVVWDETSNKVRNYRIFEKDSKFYLEGEVLFVSVGSMVEHYHTHVLPSHQSLLLRHPYGYTGPR

Continued, binder first:

B1: c-Abl SH3 domain binding protein-2 (3BP2), endogenous in U937 cells (protein, UniProt P78314 1-561)
chain: B3 chain with R418P
binding: binds

B2: HA-tagged 3BP2 wild-type (protein, UniProt P78314 1-561)
chain: B3 chain with R418P
binding: binds

Positions count from the first letter of the chain named. These are yes or no findings as the source states them, for the method shown. In cells and extracts the contact can be indirect. Binding calls can cover weak binding; strength is not graded here. Where a sequence is shown, tags or fusion partners need not be part of it. One block for each binder: values may come before it.
